PubChem BioAssay AID1224830, NIAID | 2016

Aim: 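Genes whose knock-down alters the TNF-alpha reporter response to LPS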 (primary screen)
System: human THP-1 monocytic leukaemia cells, TNF dual-luciferase reporter clone, PMA-differentiated to macrophage-like cells
Reagents: siRNA pool against human genes, 50 nM
Duration: LPS for 4 h, given about 3 days after siRNA transfection
Treatment: bacterial LPS (TLR4 ligand), 10 ng/ml
Measurement: 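Ratio of firefly to renilla light, scaled to the plate median and expressed as a robust z-score per replicate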
Scale: TNF reporter robust z-score: higher = stronger TNF reporter response to LPS
Active means: 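a well is active when its z-score exceeds 2.8 or falls below -1.5; control wells carry no call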
The whole screen tested about 18,000 reagents; shown is a random part of them. Of all reagents, about 2,900 (16%) are marked active. 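Calls are made per well; low scores hint the gene aids the LPS response, high scores that it dampens it.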 Repeated entries: four replicate wells of each siRNA pool.

target	TNF reporter robust z-score	Outcome
OR6C74 (GeneID 254783)	-0.27	inactive
OR6C74 (GeneID 254783)	-0.64	inactive
OR6C74 (GeneID 254783)	-0.22	inactive
OR6C74 (GeneID 254783)	0.17	inactive
SIK1 (GeneID 150094)	-0.31	inactive
SIK1 (GeneID 150094)	0.8	inactive
SIK1 (GeneID 150094)	-0.01	inactive
SIK1 (GeneID 150094)	-0.85	inactive
PRR5-ARHGAP8 (GeneID 553158)	-0.5	inactive
PRR5-ARHGAP8 (GeneID 553158)	-0.12	inactive
PRR5-ARHGAP8 (GeneID 553158)	-0.97	inactive
PRR5-ARHGAP8 (GeneID 553158)	0	inactive
SKI (GeneID 6497)	-0.37	inactive
SKI (GeneID 6497)	-0.69	inactive
SKI (GeneID 6497)	-0.75	inactive
SKI (GeneID 6497)	-0.59	inactive
UBA3 (GeneID 9039)	0.72	inactive
UBA3 (GeneID 9039)	-0.46	inactive
UBA3 (GeneID 9039)	-1.64	active
UBA3 (GeneID 9039)	1.7	inactive
RPS8 (GeneID 6202)	-1.27	inactive
RPS8 (GeneID 6202)	-1.18	inactive
RPS8 (GeneID 6202)	-1.41	inactive
GABRG3 (GeneID 2567)	0.63	inactive
GABRG3 (GeneID 2567)	0.22	inactive
GABRG3 (GeneID 2567)	0.15	inactive
GABRG3 (GeneID 2567)	0.24	inactive
KCNB2 (GeneID 9312)	-0.4	inactive
KCNB2 (GeneID 9312)	-1.48	inactive
KCNB2 (GeneID 9312)	-1.47	inactive
KCNB2 (GeneID 9312)	-0.82	inactive
TCTA (GeneID 6988)	-0.04	inactive
TCTA (GeneID 6988)	0.92	inactive
TCTA (GeneID 6988)	-0.68	inactive
TCTA (GeneID 6988)	-0.56	inactive
TRIM21 (GeneID 6737)	0.1	inactive
TRIM21 (GeneID 6737)	-0.28	inactive
TRIM21 (GeneID 6737)	0.48	inactive
TRIM21 (GeneID 6737)	-0.05	inactive
SUSD4 (GeneID 55061)	-1.49	inactive
SUSD4 (GeneID 55061)	0	inactive
SUSD4 (GeneID 55061)	-1.04	inactive
SUSD4 (GeneID 55061)	-0.46	inactive
MZF1 (GeneID 7593)	-0.9	inactive
MZF1 (GeneID 7593)	0.58	inactive
MZF1 (GeneID 7593)	-0.24	inactive
MZF1 (GeneID 7593)	1.15	inactive
